{"source": "patent US8759339B2", "about": "“Pyrrolo[2,1-c][1,4]naphthodiazepine linked piperazine compounds and a process for the preparation thereof” (Council of Scientific & Industrial Research, priority 2011, dated 2014)", "assay_in_all_cases": "In vitro anticancer activity, MTT assay", "key": {"[1]": {"system": "NCIH460 large cell lung cancer cell line", "format": "cell-based, human", "conditions": "range over the listed compounds; exposure period of at least 48 hrs", "description": "(§1) In vitro biological activity studies were carried out at the pharmacology division, IICT, Hyderabad. The compounds were evaluated for in vitro anticancer activity against eight tumour cell lines derived from […] cancer types (breast, lung, liver, skeletal, kidney, prostrate, small intestine) as shown in Table 2. For each compound, dose response curves for each cell line were measured at a minimum of five concentrations at 10 fold dilutions. A protocol of 48 h continuous drug exposure was used and a MTT assay was used to estimate cell viability or growth. The concentration causing 50% inhibition (IC50) compared with the control was calculated. Some of the compounds have been evaluated for their in vitro cytotoxicity in eight cell lines from seven human cancer types. The results are expressed as IC50 determined relative to that of untreated control cells (Table-2)."}, "[2]": {"system": "PC-3 prostrate cancer cell line", "format": "cell-based, human", "conditions": "range over the listed compounds; exposure period of at least 48 hrs; read-out: IC50 against prostate cancer cell lines", "description": "as §1"}, "[3]": {"system": "MCF7 breast cancer cell line", "format": "cell-based, human", "conditions": "range over the listed compounds; exposure period of at least 48 hrs; read-out: IC50 against breast cancer cell lines", "description": "as §1"}, "L-6": {"system": "L-6", "format": "cell-based", "conditions": "range over the listed compounds; exposure period of at least 48 hrs; read-out: IC50 against skeletal cancer cell lines", "description": "as §1"}}, "note": "Some of these results come from one statement about several compounds together. Some ranges recur; such a range may be that of the whole group of compounds.", "data": [{"smiles": "CCN1CCN(CCOc2cc3cc4c(cc3cc2OC)N=C[C@@H]2CCCN2C4=O)CC1", "note": "[15a, 9-Methoxy-8-[2-(4-ethylpiperazino)ethoxy]-(13aS)-1,2,3,13a-tetrahydro-5H-pyrrolo[2,1-c][1,4]naphthodiazepin-5-one]", "values": [{"measurement": "IC40 against large cell lung cancer cell lines", "setting": "[1]", "value": "2 to 1680", "unit": "nM"}, {"measurement": "IC50", "setting": "[2]", "value": "10 to 13500", "unit": "nM"}, {"measurement": "IC50", "setting": "[3]", "value": "2 to 3990", "unit": "nM"}, {"measurement": "IC50", "setting": "L-6", "value": "2 to 2660", "unit": "nM"}]}, {"smiles": "COc1cc2cc3c(cc2cc1OCCN1CCN(c2ccc(F)cc2)CC1)C(=O)N1CCC[C@H]1C=N3", "note": "[20a, 9-Methoxy-8-(2-[4-(4-fluorophenyl)piperazino]ethoxy)-(13aS)-1,2,3,13a-tetrahydro-5H-pyrrolo[2,1-c][1,4]naphthodiazepin-5-one]", "values": [{"measurement": "IC40 against large cell lung cancer cell lines", "setting": "[1]", "value": "2 to 1680", "unit": "nM"}, {"measurement": "IC50", "setting": "[2]", "value": "10 to 13500", "unit": "nM"}, {"measurement": "IC50", "setting": "[3]", "value": "2 to 3990", "unit": "nM"}, {"measurement": "IC50", "setting": "L-6", "value": "2 to 2660", "unit": "nM"}]}, {"smiles": "COc1cc2cc3c(cc2cc1OCCN1CCN(c2ccccn2)CC1)C(=O)N1CCC[C@H]1C=N3", "note": "[23a, 9-Methoxy-8-(2-[4-(2-pyridyl)piperazino]ethoxy)-(13aS)-1,2,3,13a-tetrahydro-5H-pyrrolo[2,1-c][1,4]naphthodiazepin-5-one]", "values": [{"measurement": "IC40 against large cell lung cancer cell lines", "setting": "[1]", "value": "2 to 1680", "unit": "nM"}, {"measurement": "IC50", "setting": "[2]", "value": "10 to 13500", "unit": "nM"}, {"measurement": "IC50", "setting": "[3]", "value": "2 to 3990", "unit": "nM"}, {"measurement": "IC50", "setting": "L-6", "value": "2 to 2660", "unit": "nM"}]}, {"smiles": "COc1cc2cc3c(cc2cc1OCCN1CCN(c2ncccn2)CC1)C(=O)N1CCC[C@H]1C=N3", "note": "[24a, 9-Methoxy-8-(2-[4-(2-pyrimidinyl)piperazino]ethoxy)-(13aS)-1,2,3,13a-tetrahydro-5H-pyrrolo[2,1-c][1,4]naphthodiazepin-5-one]", "values": [{"measurement": "IC40 against large cell lung cancer cell lines", "setting": "[1]", "value": "2 to 1680", "unit": "nM"}, {"measurement": "IC50", "setting": "[2]", "value": "10 to 13500", "unit": "nM"}, {"measurement": "IC50", "setting": "[3]", "value": "2 to 3990", "unit": "nM"}, {"measurement": "IC50", "setting": "L-6", "value": "2 to 2660", "unit": "nM"}]}]}
